PMC13386968
Results are given in words; binding and its absence hold for the method and conditions named. In cells and extracts the contact can be indirect. Some binding calls cover weakened binding; strength is not graded here.

By UniProt entry, the sequences of proteins in these tests, tags left out. Where a name states a change or a piece, a line headed by the entry shows the natural chain unless it says otherwise.
UniProt Q01628: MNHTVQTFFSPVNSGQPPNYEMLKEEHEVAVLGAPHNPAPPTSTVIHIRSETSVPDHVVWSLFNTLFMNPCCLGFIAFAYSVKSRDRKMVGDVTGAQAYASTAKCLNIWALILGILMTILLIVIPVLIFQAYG
UniProt Q01629: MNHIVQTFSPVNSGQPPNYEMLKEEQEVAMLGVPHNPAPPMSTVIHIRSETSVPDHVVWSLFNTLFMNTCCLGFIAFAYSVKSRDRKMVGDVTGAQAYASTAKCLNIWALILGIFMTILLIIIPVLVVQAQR
UniProt P13164: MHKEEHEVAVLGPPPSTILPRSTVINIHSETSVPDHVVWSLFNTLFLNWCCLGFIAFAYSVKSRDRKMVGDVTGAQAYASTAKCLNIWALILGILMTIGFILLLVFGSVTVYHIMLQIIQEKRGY

Key:
[1] = biological target: endogenous IFITM3 (human (endogenous in HEK293T, HeLa and primary human nasal epithelial cells)) (UniProt Q01628); assay: co-IP; anti-IFITM3 immunoprecipitation from lysates of HeLa untreated or treated with 100 units of IFNb for 18 h; immunoblot with anti-IFITM1
[2] = biological target: endogenous IFITM3 (human (endogenous in HEK293T, HeLa and primary human nasal epithelial cells)) (UniProt Q01628); assay: proximity ligation; HEK293T untreated or treated with 100 units of IFNb for 18 h, fixed and permeabilized; anti-IFITM1 and anti-IFITM3; endogenous proteins
FLAG-IFITM3 G95L (human) [3] = biological target: FLAG-IFITM3 G95L (human) (UniProt Q01628); assay: co-IP; anti-FLAG immunoprecipitation from lysates of HEK293T stably expressing FLAG-IFITM3 WT or G95L; immunoblot with anti-IFITM1; 1% Triton X-100, 150 mM NaCl, 4°C
FLAG-IFITM3 WT (human) [4] = biological target: FLAG-IFITM3 WT (human) (UniProt Q01628); assay: as above
[5] = biological target: endogenous IFITM2 (human (endogenous in HeLa)) (UniProt Q01629); assay: co-IP; anti-IFITM2 immunoprecipitation from HeLa cells, untreated or interferon-treated; endogenous proteins (Fig. S1B)
[6] = biological target: endogenous IFITM3 (human (endogenous in HEK293T, HeLa and primary human nasal epithelial cells)) (UniProt Q01628); assay: proximity ligation; HeLa and HeLa IFITM3 knockout cells, fixed and permeabilized; anti-IFITM1 and anti-IFITM3; endogenous proteins
[7] = biological target: endogenous IFITM3 (human (endogenous in HEK293T, HeLa and primary human nasal epithelial cells)) (UniProt Q01628); assay: co-IP; anti-IFITM3 immunoprecipitation from lysates of HEK293T untreated or treated with 100 units of IFNb for 18 h; immunoblot with anti-IFITM1
[8] = biological target: endogenous IFITM3 (human (endogenous in HEK293T, HeLa and primary human nasal epithelial cells)) (UniProt Q01628); assay: co-IP; IFITM3 immunoprecipitated from primary human nasal epithelial cells, interferon-treated; endogenous proteins (Fig. S2A)
FLAG-IFITM3 G95L (human) [9] = biological target: FLAG-IFITM3 G95L (human) (UniProt Q01628); assay: proximity ligation; HEK293T transiently transfected with FLAG-IFITM1 WT and FLAG-IFITM3 WT or G95L, fixed and permeabilized; anti-IFITM1 and anti-IFITM3; confocal microscopy
FLAG-IFITM3 WT (human) [10] = biological target: FLAG-IFITM3 WT (human) (UniProt Q01628); assay: as above

Measured: binding

endogenous IFITM1 (from UniProt P13164 1-125)
not listed: FLAG-IFITM3 G95L (human) [9] | FLAG-IFITM3 WT (human) [10]
binds: all other assays above

endogenous IFITM3 (from UniProt Q01628 1-133)
binds: [5]

FLAG-IFITM1 WT (from UniProt P13164 1-125)
binds: FLAG-IFITM3 G95L (human) [9] | FLAG-IFITM3 WT (human) [10]
